Experimental data reported in the supplement of paper PMC12819154, “High-throughput peptide-centric local stability assay extends protein–ligand identification to membrane proteins, tissues and bacteria” (Nature Structural & Molecular Biology, 2025).
The other results are listed elsewhere or left out. Most values lie at the level of the controls, where differences are scatter.

By UniProt entry, the sequences of proteins in these tests, tags left out. Where a name states a change or a piece, a line headed by the entry shows the natural chain unless it says otherwise.
UniProt Q91V81: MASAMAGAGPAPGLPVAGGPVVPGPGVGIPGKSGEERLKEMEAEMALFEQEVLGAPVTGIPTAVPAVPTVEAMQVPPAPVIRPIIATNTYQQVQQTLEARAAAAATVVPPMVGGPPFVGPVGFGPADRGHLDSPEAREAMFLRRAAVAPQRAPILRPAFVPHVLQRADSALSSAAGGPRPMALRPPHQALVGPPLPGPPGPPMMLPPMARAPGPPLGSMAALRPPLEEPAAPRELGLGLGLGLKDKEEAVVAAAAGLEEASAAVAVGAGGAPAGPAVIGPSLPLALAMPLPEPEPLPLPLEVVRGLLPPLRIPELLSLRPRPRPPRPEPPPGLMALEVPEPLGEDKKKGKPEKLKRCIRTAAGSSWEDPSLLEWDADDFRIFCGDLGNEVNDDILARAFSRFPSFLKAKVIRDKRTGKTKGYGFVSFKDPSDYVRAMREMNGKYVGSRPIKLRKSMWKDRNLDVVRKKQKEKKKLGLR
UniProt Q91XL2: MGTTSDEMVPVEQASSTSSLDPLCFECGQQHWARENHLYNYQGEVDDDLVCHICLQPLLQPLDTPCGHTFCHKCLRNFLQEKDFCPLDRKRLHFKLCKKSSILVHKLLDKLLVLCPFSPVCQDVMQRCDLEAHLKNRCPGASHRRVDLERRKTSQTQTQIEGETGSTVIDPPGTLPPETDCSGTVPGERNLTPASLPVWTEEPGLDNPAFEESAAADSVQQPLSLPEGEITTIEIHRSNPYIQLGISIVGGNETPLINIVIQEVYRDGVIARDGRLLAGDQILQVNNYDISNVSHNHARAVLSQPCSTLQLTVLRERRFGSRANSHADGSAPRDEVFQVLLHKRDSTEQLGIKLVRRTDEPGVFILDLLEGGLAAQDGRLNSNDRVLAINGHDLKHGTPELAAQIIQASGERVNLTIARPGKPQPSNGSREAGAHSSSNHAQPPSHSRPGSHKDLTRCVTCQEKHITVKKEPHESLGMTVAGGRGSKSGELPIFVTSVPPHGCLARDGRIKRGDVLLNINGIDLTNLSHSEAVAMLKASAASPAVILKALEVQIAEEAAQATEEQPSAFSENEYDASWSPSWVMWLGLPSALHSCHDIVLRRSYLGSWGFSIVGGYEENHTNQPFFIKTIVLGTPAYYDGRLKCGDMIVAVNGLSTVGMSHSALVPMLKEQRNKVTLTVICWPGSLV
UniProt Q91X72: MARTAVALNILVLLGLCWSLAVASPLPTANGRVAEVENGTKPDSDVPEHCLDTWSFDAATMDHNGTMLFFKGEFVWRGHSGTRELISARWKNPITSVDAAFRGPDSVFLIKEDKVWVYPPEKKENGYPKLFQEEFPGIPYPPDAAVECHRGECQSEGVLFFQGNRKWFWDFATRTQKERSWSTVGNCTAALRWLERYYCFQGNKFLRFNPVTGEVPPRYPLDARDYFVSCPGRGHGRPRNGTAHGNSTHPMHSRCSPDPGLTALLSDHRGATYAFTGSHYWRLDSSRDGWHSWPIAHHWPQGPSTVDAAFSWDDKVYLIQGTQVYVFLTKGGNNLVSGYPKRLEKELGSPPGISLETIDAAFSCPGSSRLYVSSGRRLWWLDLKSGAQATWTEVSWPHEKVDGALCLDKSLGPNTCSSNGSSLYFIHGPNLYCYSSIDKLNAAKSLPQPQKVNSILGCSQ
UniProt Q91WB4: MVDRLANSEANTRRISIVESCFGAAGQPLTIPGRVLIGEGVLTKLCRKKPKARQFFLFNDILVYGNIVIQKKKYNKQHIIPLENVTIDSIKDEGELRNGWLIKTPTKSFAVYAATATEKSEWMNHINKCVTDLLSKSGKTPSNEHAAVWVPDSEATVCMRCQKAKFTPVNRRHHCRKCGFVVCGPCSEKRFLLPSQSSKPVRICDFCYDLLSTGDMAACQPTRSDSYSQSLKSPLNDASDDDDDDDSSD
UniProt Q91VA6: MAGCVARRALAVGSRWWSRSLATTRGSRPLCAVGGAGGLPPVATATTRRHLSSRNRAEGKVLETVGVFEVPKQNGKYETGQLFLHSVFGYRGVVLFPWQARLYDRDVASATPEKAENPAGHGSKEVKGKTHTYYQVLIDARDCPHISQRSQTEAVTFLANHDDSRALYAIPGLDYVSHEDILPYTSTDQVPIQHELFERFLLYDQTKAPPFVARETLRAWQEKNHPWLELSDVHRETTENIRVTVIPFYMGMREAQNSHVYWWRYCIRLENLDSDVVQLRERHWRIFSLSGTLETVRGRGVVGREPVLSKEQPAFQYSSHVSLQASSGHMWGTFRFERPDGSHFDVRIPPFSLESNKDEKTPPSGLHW
UniProt Q91VE0: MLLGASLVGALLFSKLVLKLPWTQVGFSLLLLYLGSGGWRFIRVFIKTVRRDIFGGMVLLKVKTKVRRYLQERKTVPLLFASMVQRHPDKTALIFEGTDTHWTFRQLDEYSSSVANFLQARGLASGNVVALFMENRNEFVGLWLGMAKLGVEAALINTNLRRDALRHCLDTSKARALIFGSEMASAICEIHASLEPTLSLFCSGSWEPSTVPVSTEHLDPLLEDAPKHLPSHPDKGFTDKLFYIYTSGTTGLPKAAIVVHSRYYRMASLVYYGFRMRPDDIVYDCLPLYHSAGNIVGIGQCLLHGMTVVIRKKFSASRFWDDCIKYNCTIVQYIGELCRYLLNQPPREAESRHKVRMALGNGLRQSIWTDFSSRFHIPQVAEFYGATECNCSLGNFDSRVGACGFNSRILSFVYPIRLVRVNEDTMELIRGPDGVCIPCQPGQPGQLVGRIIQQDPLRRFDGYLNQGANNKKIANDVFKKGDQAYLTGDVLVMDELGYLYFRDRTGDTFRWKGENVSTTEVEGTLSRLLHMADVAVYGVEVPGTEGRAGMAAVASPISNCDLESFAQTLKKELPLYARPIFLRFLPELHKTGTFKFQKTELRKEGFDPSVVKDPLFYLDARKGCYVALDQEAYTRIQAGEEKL
UniProt Q91WM2: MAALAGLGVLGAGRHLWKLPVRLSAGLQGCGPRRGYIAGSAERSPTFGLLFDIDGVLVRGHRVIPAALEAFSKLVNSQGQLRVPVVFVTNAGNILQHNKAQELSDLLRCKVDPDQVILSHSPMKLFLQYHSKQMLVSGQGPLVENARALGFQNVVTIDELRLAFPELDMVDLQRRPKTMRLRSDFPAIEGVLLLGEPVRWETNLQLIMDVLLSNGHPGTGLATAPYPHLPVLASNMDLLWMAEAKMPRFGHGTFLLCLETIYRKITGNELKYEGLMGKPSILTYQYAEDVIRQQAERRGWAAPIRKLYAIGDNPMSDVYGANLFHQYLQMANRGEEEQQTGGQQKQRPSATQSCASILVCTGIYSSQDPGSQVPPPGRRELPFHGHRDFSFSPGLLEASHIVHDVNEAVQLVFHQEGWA
UniProt Q91WU6: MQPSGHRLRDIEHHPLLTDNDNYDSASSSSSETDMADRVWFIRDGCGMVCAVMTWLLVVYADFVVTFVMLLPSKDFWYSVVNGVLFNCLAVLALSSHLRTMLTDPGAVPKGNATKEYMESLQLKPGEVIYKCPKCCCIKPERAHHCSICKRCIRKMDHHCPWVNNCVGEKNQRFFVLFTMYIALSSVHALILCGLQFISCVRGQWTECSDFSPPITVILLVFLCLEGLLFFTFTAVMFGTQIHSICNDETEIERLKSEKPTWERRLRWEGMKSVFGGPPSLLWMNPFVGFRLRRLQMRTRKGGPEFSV
UniProt Q91YE3: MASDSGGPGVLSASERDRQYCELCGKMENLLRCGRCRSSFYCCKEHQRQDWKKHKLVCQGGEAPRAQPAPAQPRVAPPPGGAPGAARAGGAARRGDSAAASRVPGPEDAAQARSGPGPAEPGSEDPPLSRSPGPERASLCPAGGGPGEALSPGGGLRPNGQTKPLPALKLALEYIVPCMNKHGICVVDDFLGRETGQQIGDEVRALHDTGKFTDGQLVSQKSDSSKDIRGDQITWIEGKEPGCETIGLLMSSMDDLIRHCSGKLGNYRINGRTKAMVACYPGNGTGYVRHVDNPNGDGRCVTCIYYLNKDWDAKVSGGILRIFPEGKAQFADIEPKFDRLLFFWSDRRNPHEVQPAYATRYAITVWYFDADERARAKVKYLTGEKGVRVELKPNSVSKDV
UniProt Q91WK1: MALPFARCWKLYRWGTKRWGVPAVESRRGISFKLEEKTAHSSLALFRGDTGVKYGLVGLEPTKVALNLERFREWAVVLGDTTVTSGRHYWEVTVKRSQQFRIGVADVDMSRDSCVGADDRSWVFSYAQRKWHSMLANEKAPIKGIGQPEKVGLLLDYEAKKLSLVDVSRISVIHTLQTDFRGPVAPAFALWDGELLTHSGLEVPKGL
UniProt Q91YU6: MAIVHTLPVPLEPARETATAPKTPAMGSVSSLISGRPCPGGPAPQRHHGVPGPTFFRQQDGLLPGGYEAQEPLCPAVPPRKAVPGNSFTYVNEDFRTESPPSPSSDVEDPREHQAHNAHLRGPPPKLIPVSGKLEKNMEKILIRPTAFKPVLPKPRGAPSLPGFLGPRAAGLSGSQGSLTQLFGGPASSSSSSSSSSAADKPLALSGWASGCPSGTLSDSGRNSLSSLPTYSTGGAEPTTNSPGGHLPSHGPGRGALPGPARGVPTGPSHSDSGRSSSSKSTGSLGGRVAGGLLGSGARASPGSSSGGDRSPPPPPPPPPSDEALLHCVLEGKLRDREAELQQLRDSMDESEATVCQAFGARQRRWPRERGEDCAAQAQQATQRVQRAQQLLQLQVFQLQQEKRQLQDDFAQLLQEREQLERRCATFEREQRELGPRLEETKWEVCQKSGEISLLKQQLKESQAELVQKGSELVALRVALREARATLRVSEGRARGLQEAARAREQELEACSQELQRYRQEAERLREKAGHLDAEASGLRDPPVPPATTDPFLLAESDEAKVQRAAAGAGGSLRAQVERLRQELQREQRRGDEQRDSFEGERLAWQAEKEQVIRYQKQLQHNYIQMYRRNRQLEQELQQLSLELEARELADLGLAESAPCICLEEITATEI
UniProt Q91YY2: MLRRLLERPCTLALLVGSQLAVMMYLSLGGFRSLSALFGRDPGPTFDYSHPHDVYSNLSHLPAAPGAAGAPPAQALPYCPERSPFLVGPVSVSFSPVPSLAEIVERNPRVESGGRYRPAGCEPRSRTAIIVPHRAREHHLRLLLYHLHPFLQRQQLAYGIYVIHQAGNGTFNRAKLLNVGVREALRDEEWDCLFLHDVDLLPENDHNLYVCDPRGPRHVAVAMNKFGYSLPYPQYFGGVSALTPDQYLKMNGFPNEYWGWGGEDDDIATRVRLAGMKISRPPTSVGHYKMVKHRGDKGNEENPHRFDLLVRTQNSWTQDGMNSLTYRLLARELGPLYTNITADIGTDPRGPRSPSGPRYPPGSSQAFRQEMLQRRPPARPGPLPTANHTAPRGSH
UniProt Q8VHF2: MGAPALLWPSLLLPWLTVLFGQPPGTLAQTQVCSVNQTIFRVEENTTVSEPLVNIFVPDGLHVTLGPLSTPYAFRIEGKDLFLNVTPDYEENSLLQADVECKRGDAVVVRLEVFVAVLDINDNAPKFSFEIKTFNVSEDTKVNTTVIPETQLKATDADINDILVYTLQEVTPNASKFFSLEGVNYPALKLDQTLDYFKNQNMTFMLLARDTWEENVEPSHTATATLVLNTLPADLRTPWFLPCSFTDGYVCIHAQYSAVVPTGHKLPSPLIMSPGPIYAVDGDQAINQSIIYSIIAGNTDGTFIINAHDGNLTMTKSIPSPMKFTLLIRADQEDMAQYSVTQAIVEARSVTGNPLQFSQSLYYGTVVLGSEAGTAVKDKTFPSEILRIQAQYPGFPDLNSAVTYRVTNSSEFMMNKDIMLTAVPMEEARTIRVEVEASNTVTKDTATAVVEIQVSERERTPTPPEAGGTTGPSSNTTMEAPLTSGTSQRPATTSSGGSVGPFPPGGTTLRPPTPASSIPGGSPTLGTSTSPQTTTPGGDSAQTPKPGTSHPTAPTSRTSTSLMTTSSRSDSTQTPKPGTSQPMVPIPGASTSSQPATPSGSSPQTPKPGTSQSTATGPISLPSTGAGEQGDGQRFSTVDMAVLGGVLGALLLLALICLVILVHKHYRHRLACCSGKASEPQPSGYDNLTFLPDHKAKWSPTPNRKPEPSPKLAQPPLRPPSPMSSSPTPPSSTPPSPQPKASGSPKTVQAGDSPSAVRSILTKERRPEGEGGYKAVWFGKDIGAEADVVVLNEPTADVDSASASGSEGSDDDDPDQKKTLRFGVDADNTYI
UniProt Q91V76: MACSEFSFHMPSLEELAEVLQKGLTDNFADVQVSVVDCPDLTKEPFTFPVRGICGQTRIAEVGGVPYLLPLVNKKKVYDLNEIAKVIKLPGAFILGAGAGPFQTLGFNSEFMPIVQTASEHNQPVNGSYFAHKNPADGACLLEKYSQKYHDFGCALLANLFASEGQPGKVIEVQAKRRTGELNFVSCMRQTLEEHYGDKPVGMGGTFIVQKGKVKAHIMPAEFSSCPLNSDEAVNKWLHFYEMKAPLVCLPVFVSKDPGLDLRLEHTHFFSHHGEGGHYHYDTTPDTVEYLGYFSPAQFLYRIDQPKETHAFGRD
UniProt Q91WM6: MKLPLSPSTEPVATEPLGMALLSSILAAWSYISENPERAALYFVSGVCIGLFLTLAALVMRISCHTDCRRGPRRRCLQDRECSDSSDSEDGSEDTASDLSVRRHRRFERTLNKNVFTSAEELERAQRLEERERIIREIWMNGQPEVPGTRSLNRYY

The targets below were run with CN[C@@H]1C[C@H]2O[C@@](C)([C@@H]1OC)n1c3ccccc3c3c4c(c5c6ccccc6n2c5c31)C(=O)NC4 [staurosporine] (assay: log2 fold change of tryptic peptide abundance, ligand vs vehicle (limited proteolysis) (log2 ratio); higher = more trypsin-susceptible (destabilized)). Settings: ligand concentration: 20 uM; sample: mouse liver crude lysate; replicate design: treated separately.

Target | log2 fold change
UniProt Q91X51 (peptide sequence: ANVEKPVK, peptide start residue: 61) | -0.237
UniProt Q91V81 (peptide sequence: GHLDSPEAR, peptide start residue: 129) | -0.133
UniProt Q91XL2 (peptide sequence: DEVFQVLLHKR, peptide start residue: 334) | 0.497
UniProt Q91YL3 (peptide sequence: IFVDTDSDIR, peptide start residue: 224) | 0.233
UniProt Q91X72 (peptide sequence: GPDSVFLIKEDK, peptide start residue: 103) | -0.248
UniProt Q91WB4 (peptide sequence: NGWLIKTPTK, peptide start residue: 98) | 0.719
UniProt Q8VI59 (peptide sequence: APLAGSK, peptide start residue: 516) | -0.421
UniProt Q91VA6 (peptide sequence: IFSLSGTLETVR, peptide start residue: 286) | 0.259
UniProt Q91VE0 (peptide sequence: KIANDVFK, peptide start residue: 472) | 0.453
UniProt Q91VT1 (peptide sequence: MSDLIPDEALR, peptide start residue: 222) | 0.374
UniProt Q91WS7 (peptide sequence: RHNDCFVGSEAVDVIYSHLTQNK, peptide start residue: 61) | -0.471
UniProt Q91WJ8 (peptide sequence: SPPPNADPNMK, peptide start residue: 411) | 0.555
UniProt Q91Z96 (peptide sequence: LTEEELLDREFDLLR, peptide start residue: 622) | 0.29
UniProt Q91WE4 (peptide sequence: KAVQQSGDKNMSK, peptide start residue: 35) | 0.25
UniProt Q91WM2 (peptide sequence: VPVVFVTNAGNILQHNK, peptide start residue: 83) | 0.176
UniProt Q91WU6 (peptide sequence: LKSEKPTWER, peptide start residue: 255) | 0.0581
UniProt Q91VL9 (peptide sequence: GAIMEENER, peptide start residue: 564) | -0.318
UniProt Q91WK5 (peptide sequence: SCYEDGWLIK, peptide start residue: 134) | -0.477

Pulled one by one from above:
Target | log2 fold change
UniProt Q91WS7 (peptide sequence: RHNDCFVGSEAVDVIYSHLTQNK, peptide start residue: 61) | -0.471
UniProt Q91WM2 (peptide sequence: VPVVFVTNAGNILQHNK, peptide start residue: 83) | 0.176

(listing goes on)

Target | log2 fold change
UniProt Q91XE4 (peptide sequence: SSLPGSREPLLR, peptide start residue: 2) | 0.182
UniProt Q91VR5 (peptide sequence: GKHYYEVSCHDQGLCR, peptide start residue: 131) | -0.609
UniProt Q91YE3 (peptide sequence: VELKPNSVSK, peptide start residue: 389) | 0.298
UniProt Q91X20 (peptide sequence: SLPDTYKDK, peptide start residue: 496) | -0.147
UniProt Q91YE5 (peptide sequence: KPKPGSLQPQHLQSTIR, peptide start residue: 1184) | 0.445
UniProt Q91V17 (peptide sequence: ASLADALPLHIAPR, peptide start residue: 122) | -0.122
UniProt Q91WK1 (peptide sequence: WHSMLANEK, peptide start residue: 131) | 0.295
UniProt Q91VW3 (peptide sequence: VYSTSVTGSR, peptide start residue: 6) | 0.0654
UniProt Q91YU6 (peptide sequence: GAPSLPGFLGPR, peptide start residue: 157) | 0.385
UniProt Q91XD6 (peptide sequence: RWETVPVSQSLQTNK, peptide start residue: 130) | -0.311
UniProt Q91YY2 (peptide sequence: GNEENPHRFDLLVR, peptide start residue: 298) | -0.299
UniProt Q8WTY4 (peptide sequence: RPDPASLK, peptide start residue: 224) | 0.149
UniProt Q91YI4 (peptide sequence: RGLALDGQLK, peptide start residue: 287) | 0.243
UniProt Q8VHF2 (peptide sequence: TVQAGDSPSAVR, peptide start residue: 747) | 0.0708
UniProt Q91V76 (peptide sequence: ETHAFGRD, peptide start residue: 308) | -0.336
UniProt Q91WM6 (peptide sequence: NVFTSAEELER, peptide start residue: 114) | -0.175
UniProt Q91VY5 (peptide sequence: TVSLGQIVITK, peptide start residue: 906) | -0.22
